For some of these results: At least one read-out could not be matched to a standard name with certainty. For some of these results: For at least one compound, name, drawing or mass did not settle the structure.
How the values were obtained:
VIM-24 = molecular target: T1, VIM-24 (Escherichia coli, UniProt Q5U7L7, R205L); experiment: Steady-state kinetic parameters of substrate hydrolysis by VIM-24; format: biochemical
T1 construct: which corresponds to cleavage after residues 20 (plus an additional Met residue on the N-terminus); made in house; host or cells: E. coli BL21(DE3) pLys, plasmid pET-24a(+)-blaVIM-24-S21
Text: (§1) Steady-state reactions were followed using an Agilent (Santa Clara, Calif.) 8453 Diode Array spectrophotometer as previously described. […] For ceftazidime and cefepime, a 0.2-cm path length quartz cuvette was used. A nonlinear leastsquares fit of the data (Henri Michaelis-Menten equation) using Enzfitter (Biosoft Corporation, Ferguson, Mo.) was employed to obtain the steady-state kinetic parameters Vmax and KM according to equation 1.
(§2) In this equation the observed first-order rate constant k=kcat/KM*[E].

VIM-2 = molecular target: T2, VIM-2 (Pseudomonas aeruginosa, UniProt Q9K2N0); experiment: Steady-state kinetic parameters of substrate hydrolysis by VIM-2; format: biochemical, P. aeruginosa; settings: calculated from the progress curves of reaction (saturation not reached)
T2 construct: made in house; host or cells: E. coli BL21(DE3) pLys, plasmid pET-24a(+)-blaVIM-2-S21
Text: as §1, §2

[1] = test system: E. coli DH10B pBCSK(−) producing other R228X variants; experiment: MIC by agar dilution, E. coli DH10B producing the other R228X variants; format: cell-based; design: unit not given beside the values
[2] = calculated from the progress curves of reaction (saturation not reached)

## O=C(Cc1cccs1)N[C@@H]1C(=O)N2C(C(=O)O)=C(/C=C/c3ccc([N+](=O)[O-])cc3[N+](=O)[O-])CS[C@H]12 [Nitrocefin]
VIM-24; substrate hydrolysis
  kcat/KM: 1.6e+07 M⁻¹ s⁻¹

## CO/N=C(\C(=O)N[C@@H]1C(=O)N2C(C(=O)[O-])=C(C[N+]3(C)CCCC3)CS[C@H]12)c1csc(N)n1 [Cefepime]
VIM-24; [2]
  kcat/KM: 1 × 10^5 b M^−1 *s^−1
VIM-24; calculated from the progress curves of reaction (saturation not reached), listed as cefepime
  kcat/KM: 100000 M⁻¹ s⁻¹
VIM-2
  kcat/KM: 3 × 10^4 b M^−1 *s^−1
VIM-2; listed as cefepime
  kcat/KM: 30000 M⁻¹ s⁻¹

## CC(C)(O/N=C(\C(=O)N[C@@H]1C(=O)N2C(C(=O)[O-])=C(C[n+]3ccccc3)CS[C@H]12)c1csc(N)n1)C(=O)O [Ceftazidime]
VIM-24; [2]
  kcat/KM: 6 × 10^4 b M^−1 *s^−1
VIM-2
  kcat/KM: 1 × 10^4 b M^−1 *s^−1
VIM-2; listed as ceftazidime
  kcat/KM: 10000 M⁻¹ s⁻¹

## C[C@@H](O)[C@H]1C(=O)N2C(C(=O)O)=C(SCCN=CN)C[C@H]12 [Imipenem]
VIM-24; substrate hydrolysis
  kcat/KM: 1.7e+06 M⁻¹ s⁻¹
VIM-24; substrate hydrolysis, pH 7.5, 25° C., average ± SD, triplicate
  Kcat: 8.8 ± 0.3 s⁻¹
[1]; MHA
  MIC, ranges obtained for the other variants: 1-0.25
[1]; MHA supplemented with 5 μM EDTA
  MIC, ranges obtained for the other variants: 1-0.25
[1]; MHA supplemented with 250 μM Zn2+
  MIC, ranges obtained for the other variants: 2-0.5

Reference: patent US10251869B2, “Compositions and methods of inhibiting metallo-β-lactamases” (priority 2014, dated 2019)
